In paper PMC7277737:
No constants are given. Whether binding was seen depends on the method and setting. Some entries that bind do so weakly or less than the wild type.

Target: cell division protein FtsZ from Actinosynnema pretiosum WXR-24 (Actinosynnema pretiosum WXR-24)
Test: light scattering; in vitro assembly of 15 uM FtsZ in J buffer (50 mM KCl, 50 mM MES, pH 6.5, 10 mM CaCl2, 5 mM MgCl2), room temperature, started with 1 mM GTP; with or without 500 uM AP-3; both purified

binding: binds
B1: cell division protein FtsZ from Actinosynnema pretiosum WXR-24 (protein, UniProt A0A290ZCJ0 1-404)
chain: MTPPHNYLAVIKVVGIGGGGVNAVNRMIEVGLKGVEFIAVNTDAQALLMSDADVKLDIGRELTRGLGAGANPEVGHKAAEDHREEIEEVLKGADMVFVTAGEGGGTGTGGAPVVASIARKLGALTIGVVTRPFSFEGKRRAKQAEEGIQALRNECDTLIVIPNDRLLQLGDIGVSLMDAFRSADEVLLSGVQGITDLITTPGLINLDFADVKSVMSGAGSALMGIGSARGEGRAVQAAQKAINSPLLEASMEGAHGVLLSIAGGSDLGLFEINESASLVQEAAHPDANIIFGTVIDDSLGDEVRVTVIAAGFDGNGPTHKKLEPQALSSPPKAVEPQPAPPVAVEPSPPPTPPLPTLPVQPQPPASTYQPPQPLPRPLGGLGNRAVPVTDDPDDEVDVPPFMRR
